Results reported in the supplement of paper PMC5949888.
± gives the standard deviation of the averaged measurements. Most values lie at the floor of the assay. Slopes are relative: functional sequences can read slightly below zero.

The substances below were run on Saccharomyces cerevisiae PS128 hsf1 delta, HSF1(1-493) fusion (assay: growth estimate (transactivation domain function in HSF1 fusion, heat-shock survival) (a.u. (slope of normalised read count over time)); higher = stronger growth at 37°C, i.e. more transactivation activity). Settings: library: random library.

Substance	growth estimate
WALHWSNCKLKVLYPVDKGH	< -0.25
RTRVERSLRRLRVSGSHRIP	< -0.25
LALGADLAGIF	-0.245
DQNSPVY	< -0.25
LQLQSAPRQKHTVTARRGTT	< -0.25
PLGVCLTDGHQGTVDPAGLT	< -0.25
DQWACWAP	< -0.25
GQGAEE	< -0.25
CRSSEGALPAGFARDRTLAI	< -0.25
RARHVGLTVNGEMISVITVR	< -0.25
AINFARKGLRPVYD	< -0.25
KEWGTRDWT	< -0.25
VAARKERKHSRSCGP	< -0.25
GEREFGALVNTLN	< -0.25
LFTTGRVRASSDRTAVIDAR	< -0.25
TDAGCCPLKRSCQAGIGVVG	< -0.25
YEEEYYLLLSQRLASYRKPD	< -0.25
VRVPAQIRVNILDA	< -0.25
IFQSESIDDSSRWRET	< -0.25
GMRA	-0.0944
DKATLFCQIDRSPFLVTALS	-0.246
VIMSPGFRNR	< -0.25
RRGS	< -0.25
TYSVYIQGS	< -0.25
RQLIVVARSIQVEFLRLDSD	< -0.25
ERFRHGL	< -0.25

Substance	growth estimate
AIEPLAPAAVASNQAIACHT	< -0.25
FPGLVTCNNRDAALLNARAG	< -0.25
LTSDLGVEAPGVYRRPIQGR	-0.213
RSGGWEHLGSRWFNGEGMWS	< -0.25
SDRTR	< -0.25
WVDSSLRVIATIVRAYLITS	< -0.25
SRP	-0.204 ± 0.08
SGRGSGPNDLVPEVSRPDVG	< -0.25
VEAHLS	< -0.25
GPRERAGIVASIFMVRW	-0.231
AQLECFAGYQPRLESNGATR	< -0.25
NGPLIGLGEDLRSPDHSLIE	< -0.25
RSRGHVKVEDYGVEVKLHVH	< -0.25
ERGI	< -0.25
DSASGSSGISNGALRSLLYW	< -0.25
SLGATEHNTRRRSSSAKVY	< -0.25
CHPENVIFDHSLQYSASLSS	< -0.25
LLRS	< -0.25
LQNAFGGSTGHKGAVSPC	< -0.25
LVTKEIAALLGRRFIPSAWA	< -0.25
SFSAKPFLRRYVRSD	< -0.25
TLCQLPMNSVWVDPARNSLV	< -0.25
QSWCRHRLTSRLRPSSLRAH	< -0.25
SILSGTLRVTDRNYAHF	< -0.25
SGKRVKSCLKFSWGPLISRV	< -0.25
LVELPPGVI	< -0.25

Substance	growth estimate
FLDWLPEARRVLWEVWDQMI	< -0.25
LGAMDGVRPSACIEKCFPTR	< -0.25
VNNGAWNRSPFLLQSGSSPL	< -0.25
QWQSSQITDFVLRTPTALPQ	< -0.25
HGDTNLGLRSDKIELPYFVT	< -0.25
CHISLHGIWGNLSIPRPSTG	< -0.25
QIDLVLDALELNY	< -0.25
VKSWGFSVGITSYGEAPAGV	< -0.25
RQSEYRIGSLQCILTV	< -0.25
CNSILYPTRRSQ	< -0.25
HRSSGVDLTSSDKRHP	< -0.25
QSLRDSVVKIRVGAG	< -0.25
AQYGGDTPQGSRNFGAREGA	< -0.25
NTHRHYANGVGCQVPLQTPR	< -0.25
LPLIGVLLAWRFHVQGDLCI	< -0.25
SANSSFHGRLRVPRTSIS	< -0.25
VPRIDSKPGQTFFSSVLLQW	< -0.25
NYRVIDFTYIATPSDILVAT	< -0.25
RVGNVGDGATGGV	< -0.25
HCEEYKGSYRCVRCAYIQQG	< -0.25
YAVSVLNTCVNGVIHVRLES	< -0.25
QGFRNHWVRRGNLYVK	< -0.25
NPYGWVAP	< -0.25
AMNCRVPFCEVTCTFWSISA	-0.243
HGFGLE	< -0.25
RCTQFTMDPTTGQQGFDGQN	< -0.25

Rewritten in CSV form: entries from further up
Substance,growth estimate
FLDWLPEARRVLWEVWDQMI,< -0.25
RQSEYRIGSLQCILTV,< -0.25

Later entries:

Substance	growth estimate
DLCWSGSDSRSSYYR	< -0.25
IRSHGPQCRVPFPEAQAQEL	< -0.25
YSRDWRD	< -0.25
RKLPMLGKLQLTSGGTLQLQ	-0.245
ALVMFTRYQKHRCNNVTRVM	< -0.25
IRCR	< -0.25
PWLLARCSAIAPPQGVYLLF	< -0.25
EHNLGSGSSCNKLERAVHAE	< -0.25
PRIG	< -0.25
KRRS	< -0.25
IQRAGTSCTHRRSDIYMTGM	< -0.25
FQGCTKRLIKRRSAVLPLYT	< -0.25
SLIESTSIQLRVACSGTVRA	< -0.25
YAAE	< -0.25
NTIGITVGKIRQLAVKAYSR	< -0.25
LSPSVLAIRRWARFKIYP	< -0.25
GRNMQDREPAS	< -0.25
PTILRARFSAEASFRVVAIL	< -0.25
PTPCG	-0.245
HWGRITGTRVVEWRIYNLLN	< -0.25
RGMHYGRRICRSHSVGTHAA	< -0.25
HQWKEPGECLQ	< -0.25
SSGARSVRLISCLP	< -0.25
FRLLAYLTCRSGACIYAEVG	< -0.25
RADPGYLTHAWLWKS	< -0.25
IRSGVRGGQIQGPSLFIGPP	< -0.25

Substance	growth estimate
PEGRSYGIITGTPRLAPLGS	< -0.25
SKGKGRLRTVLKRVRTLDRL	< -0.25
LFGGPPGGVGELRPLVLSTL	< -0.25
VQQLRNVKNTETTLFSLEKG	< -0.25
FRMLACERPLTRSVKTNGL	< -0.25
RCRTLEIHPVEVCSLGHKGP	< -0.25
DPVTRSTRRNRFLGLGSSCI	< -0.25
EGVRCDWGG	-0.245
PDNSTH	-0.25
IFIAAHLCIWWVVSDQRPMG	< -0.25
IVLAFSKGRGYQPNGVKSGP	< -0.25
IDLD	< -0.25
WWADS	-0.237
CGEHEWVWMDNRCPSPRR	< -0.25
PLIHQINARYLYHHNQEYRA	< -0.25
ATLLLTRTRGQQ	< -0.25
RFY	< -0.25
AGEIKCSVF	< -0.25
LVYVPGRYAFVLRLTASSTH	< -0.25
IPGSSFQVIFAVEPRSCHNH	< -0.25
RNQVASGLHSDMFSSTGPGV	< -0.25
TTARKARFVSYDAIADFMWW	< -0.25
VHVRDRSIARCLISMNGSD	< -0.25
KGRWRWVCSTRIPCLRWVPW	< -0.25
VTDRFNC	< -0.25
LGSKPVIRKRYHQRCVPLLG	< -0.25

Substance	growth estimate
TSQPEQGEQSRIRASV	< -0.25
IKPIAKTD	< -0.25
YLILDSI	< -0.25
YLKRSFLVPPCV	< -0.25
NVHRASCS	< -0.25
PNRVPYCPRIRMVPSSRSEV	< -0.25
LRRSHVDFFVSESPRVPTRC	< -0.25
SWMGPQKRLMASIEQCVRKA	< -0.25
SQCWPTPEHAQSADLTTTAS	< -0.25
TLRVGVLILG	< -0.25
SSALHRGRLFGTLLGRVAGM	< -0.25
GRVL	-0.248 ± 0.003
RLPFSPGVAYPVAKPDRARL	< -0.25
PNIFCIGTGAFPRRGGPTLR	< -0.25
SIHGVDTGLVRFRREAKKIP	-0.127
TRGDIGSQG	< -0.25
GPFCCRHRNRYIMSPIWTAP	< -0.25
EYCSPWKAKGSLM	< -0.25
QSGPVGILS	< -0.25
GLISTRVVQGHIGYLRFLVV	-0.246
AVTPIIENGREKFLWNTGRQ	< -0.25
RRLRGCGRGLGLSGSVLAQR	< -0.25
WAAEFGMALGNVSSLSGPEP	< -0.25
ADLSGRTYPLTVFS	< -0.25

Fetched one by one from above:
Substance	growth estimate
VQQLRNVKNTETTLFSLEKG	< -0.25
VIMSPGFRNR	< -0.25
IDLD	< -0.25
DKATLFCQIDRSPFLVTALS	-0.246
FRMLACERPLTRSVKTNGL	< -0.25

Single entries from above.
For growth estimate, SQCWPTPEHAQSADLTTTAS reads < -0.25
For growth estimate, PNRVPYCPRIRMVPSSRSEV reads < -0.25
